According to article PMC3495951:
No constants are given. Whether binding was seen depends on the method and setting. Binding seen in cells or lysates may run through a third protein. Some binding calls cover weakened binding; strength is not graded here.

Protein sequences, listed by entry. Tags and fused reporters are not part of them.
UniProt P08621: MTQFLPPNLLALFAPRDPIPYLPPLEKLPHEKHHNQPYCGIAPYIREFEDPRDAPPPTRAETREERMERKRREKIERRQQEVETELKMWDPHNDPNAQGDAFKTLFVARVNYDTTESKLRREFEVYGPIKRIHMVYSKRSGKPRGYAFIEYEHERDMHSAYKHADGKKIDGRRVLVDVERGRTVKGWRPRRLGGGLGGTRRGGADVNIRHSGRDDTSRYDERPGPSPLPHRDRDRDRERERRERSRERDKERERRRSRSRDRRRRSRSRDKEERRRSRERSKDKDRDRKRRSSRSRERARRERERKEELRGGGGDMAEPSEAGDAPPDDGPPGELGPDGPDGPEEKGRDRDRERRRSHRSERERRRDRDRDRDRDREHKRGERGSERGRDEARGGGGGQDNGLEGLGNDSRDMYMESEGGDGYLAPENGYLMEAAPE
UniProt Q07955: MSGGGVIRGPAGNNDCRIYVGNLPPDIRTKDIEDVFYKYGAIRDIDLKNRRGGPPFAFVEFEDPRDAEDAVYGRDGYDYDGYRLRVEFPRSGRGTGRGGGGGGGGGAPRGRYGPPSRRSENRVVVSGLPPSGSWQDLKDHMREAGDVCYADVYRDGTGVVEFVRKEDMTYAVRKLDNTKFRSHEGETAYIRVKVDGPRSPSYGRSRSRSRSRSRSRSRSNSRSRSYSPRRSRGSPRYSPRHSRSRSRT

Biological target: EGFP-U1 70K (UniProt P08621)
Assay: FRET or BRET; FLIM-FRET in living cells at 37°C; EGFP fusion as donor, mCherry fusion as acceptor; two-photon excitation at 890 nm; FRET efficiency = 1 - (tauDA/tauD), tauD from cells with mCherry-C1; control cells and TSA-treated cells

Substance: mCherry-SRSF1 (from UniProt Q07955 1-248)
- binding: binds
